Assay results: publication doi:10.1101/2025.09.05.674500
These are yes or no findings as the source states them, for the method shown. Binding seen in cells or lysates may run through a third protein.

Chains of the proteins cited; added tags and fusions are not shown.
UniProt Q13148: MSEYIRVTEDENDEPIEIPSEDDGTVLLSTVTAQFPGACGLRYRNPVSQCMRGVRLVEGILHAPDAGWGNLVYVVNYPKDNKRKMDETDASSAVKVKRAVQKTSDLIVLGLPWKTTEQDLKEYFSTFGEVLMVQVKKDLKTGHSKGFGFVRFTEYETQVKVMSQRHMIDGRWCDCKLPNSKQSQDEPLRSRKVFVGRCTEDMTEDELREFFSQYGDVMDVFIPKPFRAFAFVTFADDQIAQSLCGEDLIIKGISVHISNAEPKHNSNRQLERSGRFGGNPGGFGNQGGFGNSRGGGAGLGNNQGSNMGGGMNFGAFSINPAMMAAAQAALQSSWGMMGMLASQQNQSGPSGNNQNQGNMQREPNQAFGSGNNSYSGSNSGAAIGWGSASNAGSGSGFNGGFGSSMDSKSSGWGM

Molecular target: TDP-43 (TAR DNA-binding protein 43) (UniProt Q13148)
Test: co-IP

binding: no binding
B1: ASC1 (S. cerevisiae ortholog of RACK1) (protein, UniProt P38011 1-319)
chain: MASNEVLVLRGTLEGHNGWVTSLATSAGQPNLLLSASRDKTLISWKLTGDDQKFGVPVRSFKGHSHIVQDCTLTADGAYALSASWDKTLRLWDVATGETYQRFVGHKSDVMSVDIDKKASMIISGSRDKTIKVWTIKGQCLATLLGHNDWVSQVRVVPNEKADDDSVTIISAGNDKMVKAWNLNQFQIEADFIGHNSNINTLTASPDGTLIASAGKDGEIMLWNLAAKKAMYTLSAQDEVFSLAFSPNRYWLAAATATGIKVFSLDPQYLVDDLRPEFAGYSKAAEPHAVSLAWSADGQTLFAGYTDNVIRVWQVMTAN
